This is an account of results in patent US12329799B2, “Peptidyl inhibitors of calcineurin-NFAT interaction” (Ohio State Innovation Foundation, priority 2018, dated 2025).

The nature of series [1]: Caco-2 permeability assay. Particulars: human, Caco-2, pH 7.4. Type of series: in vitro ADME. The method, then:
(§1) Caco-2 permeability assay. To assay the permeability of test compounds by Caco-2 cell model, Caco-2 cells were cultured to confluency before being trypsinized and seeded onto filter transwell inserts at a density of 30,000 cells/well in DMEM medium. Cells were cultured in a humidified atmosphere with 5% CO2 at 37° C. After overnight attachment, cell medium was replaced with fresh medium at both apical and basolateral sides every other day. The cell monolayers are ready for the assay 20 days post seeding. […] The dosing solution at 10 μM was obtained by diluting 10 mM stock solution in HBSS medium (pH 7.4, 25 mM HEPES) freshly before the assay. Terfenadine (25 ng/mL) and Tolbutamide (50 ng/mL) were added into dosing solution as internal standards. […] The culture medium from either the basolateral side (plate B) or apical side (plate A) were aspirated and then rinsed with HBSS medium once. Afterwards, the dosing medium was added to either basolateral or apical side. Following the incubation, 100 microliter samples from both sides were harvested at time 0 and time 90 min. Samples were quenched with acetonitrile/methanol (1:1 v/v), centrifuged, and analyzed on a Shimadzu reversed-phase HPLC and Sciex API4500 Q trap instrument.
(§2) Permeability parameters were calculated using the following equations and shown in Table 10: Papp=(Conc.receiver,90 min*Volumereceiver)/(Time*Membrane Area*Conc.donor,0 min) Efflux Ratio=Papp[B to A]/Papp[A to B]
For orientation: Caco-2 monolayers are a common model of the intestinal barrier.

The next series deals with Caco-2 cell monolayers. As to the kind of experiment: Caco-2 permeability assay. The series is classed as in vitro ADME. The method, then: as §1, §2

Regarding `CC(C)NCC(O)COc1ccc(CC(N)=O)cc1` (stereo not shown) [Atenolol], in series [1] (N = 2, 10 μM, 90 min), the Papp A→B (in general, the apparent permeability from the apical to the basolateral side of a cell layer) at 90 min, 10 μM turned out to be 0.4 ×10⁻⁶ cm/s and the Papp B→A (commonly the apparent permeability from the basolateral to the apical side of a cell layer) at 90 min, 10 μM was found to be 0.6 ×10⁻⁶ cm/s. Further, the efflux ratio (usually the permeability from basolateral to apical divided by that in the opposite direction, in the common usage) at 90 min, 10 μM in series [1] (Papp[B to A]/Papp[A to B]) amounted to 1.5. The “Pgp Substrate” value in the series on Caco-2 cell monolayers is given as “No”.
